Laboratory results: publication PMC7819943, “Rice protein-binding microarrays: a tool to detect cis-acting elements near promoter regions in rice”
Some of the results follow.

Target: T1, OsSMF1 (Oryza sativa, UniProt Q6ZLB0 1-436)
T1 sequence: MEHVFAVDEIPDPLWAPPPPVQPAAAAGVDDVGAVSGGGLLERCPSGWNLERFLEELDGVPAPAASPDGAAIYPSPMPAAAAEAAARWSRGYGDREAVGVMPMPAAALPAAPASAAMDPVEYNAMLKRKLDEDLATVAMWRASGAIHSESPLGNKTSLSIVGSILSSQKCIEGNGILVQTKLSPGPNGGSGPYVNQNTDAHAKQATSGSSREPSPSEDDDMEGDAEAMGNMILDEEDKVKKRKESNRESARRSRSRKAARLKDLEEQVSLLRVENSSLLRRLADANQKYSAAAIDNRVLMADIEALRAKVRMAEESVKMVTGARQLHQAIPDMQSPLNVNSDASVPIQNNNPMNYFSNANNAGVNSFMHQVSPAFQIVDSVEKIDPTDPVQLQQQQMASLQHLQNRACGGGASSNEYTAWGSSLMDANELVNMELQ
Assay: protein-binding microarray (RPBM); PBS, 2% BSA, 51.3 ng/ul salmon testes DNA, 50 uM zinc acetate, 200 nM TF, 25 C, 1 h; high values mean tight binding
Settings: protein: recombinant; tags: N-terminal polyhistidine and DsRed monomer fusion (pET32a); chain copies: 2; label: CyDye5-dUTP incorporated in the synthesized complementary strand; 3' TTTTT single-stranded linker to array surface; dsDNA, one strand shown
How it was run: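 The binding signal for each feature is its fluorescence intensity in arbitrary units. An Axon 4000B scanner was used to read a custom Agilent array that had been made double-stranded with Cy5-dUTP primer extension, blocked with 2% BSA, incubated at 25 °C for 1 h with 200 nM protein in PBS, 2% BSA, salmon testes DNA and 50 µM zinc acetate, and washed. The protein was an N-terminal polyhistidine–DsRed transcription factor fusion from E. coli BL21-CodonPlus, purified on Ni–NTA.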

Row | Sequence | binding signal
1 | TAAAGTTTGATGAAATAGTCGCTCACGTGGCACGCGTGCACGGAGTCACCTAGTGCAG | 9840 fluorescence intensity (a.u.)
2 | TTGTCGCATCTGAACGTGTCGAGTCACACCTGTCTGTTAGCGGAGTCACCTAGTGCAG | 8880 fluorescence intensity (a.u.)
3 | CCTTCGCCGAGCTCCCTATATATCGCCGTCGTCTCGCACTCGGAGTCACCTAGTGCAG | 22700 fluorescence intensity (a.u.)
4 | TTCATAATTTGCTTCTTAGCATGACCAGTAATGCTGTAGACGGAGTCACCTAGTGCAG | 3270 fluorescence intensity (a.u.)
5 | ACGGCCTGTGACGGCAGCCTCCTCATCACGGCAAGTCGGCCGGAGTCACCTAGTGCAG | 4530 fluorescence intensity (a.u.)
6 | TATTTCAAATGTCAATAACAATAGCTGTGCGACACACGGTCGGAGTCACCTAGTGCAG | 3450 fluorescence intensity (a.u.)
7 | CTCAGTATTGGGTTGGGTGGTGGTGGCGGCGGTGGCAGTGCGGAGTCACCTAGTGCAG | 5300 fluorescence intensity (a.u.)
8 | GCAGGCAGCGAATGCCCCTCAGCACCCGTGCGCGATCCTGCGGAGTCACCTAGTGCAG | 4000 fluorescence intensity (a.u.)
9 | TGGTGGTGGTAGTGGTAGATCAAGAGCCAAGAAGTCCGGGCGGAGTCACCTAGTGCAG | 3440 fluorescence intensity (a.u.)
10 | AGAAGCCCTGTTTGCATTTTCCTACGTGGACGCCCTTGAGCGGAGTCACCTAGTGCAG | 9510 fluorescence intensity (a.u.)
11 | CGATCACTGATCACGACGATGACGACGAGACAAAGGGAAACGGAGTCACCTAGTGCAG | 3830 fluorescence intensity (a.u.)
12 | ATTGGCGCCGGCTGTGTACGACGCGTGGCCTCGACGTGGCCGGAGTCACCTAGTGCAG | 6010 fluorescence intensity (a.u.)
13 | TAGTCCTTAATCATGACAACAGTGACATCACAAGCTAATACGGAGTCACCTAGTGCAG | 3350 fluorescence intensity (a.u.)
14 | ACCCAAAGCCACCCGCAACAACCGACGACGACGACGACCGCGGAGTCACCTAGTGCAG | 24100 fluorescence intensity (a.u.)
15 | ATTAACAATTCAATGGTTCTTGATGTGTTCTACTTAACCTCGGAGTCACCTAGTGCAG | 3260 fluorescence intensity (a.u.)
16 | GCGCGACCACGGCGTCGAGCCGACGCCGGACATCCTCGCCCGGAGTCACCTAGTGCAG | 3220 fluorescence intensity (a.u.)
17 | GCCGCCTCACGACGCGAGCGCGCCACATGGACATCCACCACGGAGTCACCTAGTGCAG | 3810 fluorescence intensity (a.u.)
18 | AATGTACATGTGGTACTGACCCGTGCGCACCGCCTCCCATCGGAGTCACCTAGTGCAG | 3520 fluorescence intensity (a.u.)
19 | ACCTAGGCACGCAGACGCAGAGAAGAAACGTCCATTCCTGCGGAGTCACCTAGTGCAG | 3420 fluorescence intensity (a.u.)
20 | GCCCTTGATTTCTGACTAGATTTGTGTTATTCTACTTACACGGAGTCACCTAGTGCAG | 5060 fluorescence intensity (a.u.)
21 | AGCTTCCTCCTCCTTCCCTCCACGCGGACATGGTATAGCCCGGAGTCACCTAGTGCAG | 3510 fluorescence intensity (a.u.)
22 | TTACCCGAGAGACGCCACCTCACCGCACCCCGTCTCACAGCGGAGTCACCTAGTGCAG | 4810 fluorescence intensity (a.u.)
23 | AAGATTGTGGATGCGCAGAAGCCCGGGTTCGGGCGCAAGTCGGAGTCACCTAGTGCAG | 19700 fluorescence intensity (a.u.)
24 | TGAGGGTCCTGAACGAGACGAGCGCCGTCTGGACGTGGCACGGAGTCACCTAGTGCAG | 3310 fluorescence intensity (a.u.)
25 | GTGCGTTGTGTGGTTGGTTGGTCAGTGTCTGGGTGGTCACCGGAGTCACCTAGTGCAG | 26000 fluorescence intensity (a.u.)
26 | CCCATTGTACGTACGGTGGACTCCCTGCGCGCGGTTTCTCCGGAGTCACCTAGTGCAG | 3210 fluorescence intensity (a.u.)
27 | GTACTGTAGCACATATGACTAATCATGGATTAATTAGTCTCGGAGTCACCTAGTGCAG | 3190 fluorescence intensity (a.u.)

Another view of part of the listing above:
Row	Sequence	binding signal
7	CTCAGTATTGGGTTGGGTGGTGGTGGCGGCGGTGGCAGTGCGGAGTCACCTAGTGCAG	5300 fluorescence intensity (a.u.)
10	AGAAGCCCTGTTTGCATTTTCCTACGTGGACGCCCTTGAGCGGAGTCACCTAGTGCAG	9510 fluorescence intensity (a.u.)
11	CGATCACTGATCACGACGATGACGACGAGACAAAGGGAAACGGAGTCACCTAGTGCAG	3830 fluorescence intensity (a.u.)
13	TAGTCCTTAATCATGACAACAGTGACATCACAAGCTAATACGGAGTCACCTAGTGCAG	3350 fluorescence intensity (a.u.)
16	GCGCGACCACGGCGTCGAGCCGACGCCGGACATCCTCGCCCGGAGTCACCTAGTGCAG	3220 fluorescence intensity (a.u.)

The results go on:

Row | Sequence | binding signal
28 | AAGGGATTAATATGTCATGATGATGTTCAATTAAAGAAGTCGGAGTCACCTAGTGCAG | 5510 fluorescence intensity (a.u.)
29 | TTTATCCTCCGCTGTCACCGTGTCACCGCCAGTCCGCCAGCGGAGTCACCTAGTGCAG | 7280 fluorescence intensity (a.u.)
30 | TGCCAGCCGACGGATGGACTCAGTGATGGCGTCACAGGCGCGGAGTCACCTAGTGCAG | 5380 fluorescence intensity (a.u.)
31 | GATGGAGGTGGAGGAGATGGGGTTCCACATTTACAGTCACCGGAGTCACCTAGTGCAG | 3220 fluorescence intensity (a.u.)
32 | GCGCGCCACATCGTCCGCCACGCCGACGGTCAGCCTCCACCGGAGTCACCTAGTGCAG | 8360 fluorescence intensity (a.u.)
33 | GTGTAACATCGATTACCCGTTCTCTCCTTTGCGGGATTTGCGGAGTCACCTAGTGCAG | 3290 fluorescence intensity (a.u.)
34 | CATTTATATGTACCATGGATTGCATTGGTGCCAAGTATGTCGGAGTCACCTAGTGCAG | 3550 fluorescence intensity (a.u.)
35 | CATAATATAGTATGCAACCACTGTCTGCCAACTACATGGCCGGAGTCACCTAGTGCAG | 3250 fluorescence intensity (a.u.)
36 | GTCCCTTCCCAACAAACAAACCCGCCACCACACGGCGCCCCGGAGTCACCTAGTGCAG | 3390 fluorescence intensity (a.u.)
37 | GCTGATTTCTGTAATTTCTTACGTGGGTCCAACAGGTGATCGGAGTCACCTAGTGCAG | 3670 fluorescence intensity (a.u.)
38 | ACATAACACTATAGCTTAAAAGATATCATCATATCTAAGCCGGAGTCACCTAGTGCAG | 3600 fluorescence intensity (a.u.)
39 | CCCACTGACGGCTCGACCCCACGTTGCGTGGGTCCCACGCCGGAGTCACCTAGTGCAG | 4910 fluorescence intensity (a.u.)
40 | CCTCGTCAATTTCTCATTCGCCGTAGGACACCTAAGCACACGGAGTCACCTAGTGCAG | 3930 fluorescence intensity (a.u.)
41 | AAATTGTGAGCCATAGTGTCATCTTTTCATAGCTTTATTCCGGAGTCACCTAGTGCAG | 3400 fluorescence intensity (a.u.)
42 | CCGAGAGAAAGAGAGCAAGAGAGAGAGACGGGCTCAAGAGCGGAGTCACCTAGTGCAG | 4560 fluorescence intensity (a.u.)
43 | AGCCTGAAGCTGCTTTCGTCGTCACCGGTTGCCGTCTGATCGGAGTCACCTAGTGCAG | 4560 fluorescence intensity (a.u.)
44 | TTAGCCATTGCTACTTGCTTGCAGCGCGCGTGTCGGCTAGCGGAGTCACCTAGTGCAG | 25300 fluorescence intensity (a.u.)
45 | CCCCACGCAGTCCAGAGCGGATCGAATGCGTGGCCCTCGCCGGAGTCACCTAGTGCAG | 3280 fluorescence intensity (a.u.)
46 | TCTGGTCTTTCCGCGTGTCGACGACCACGGTGGCGGTGCACGGAGTCACCTAGTGCAG | 3540 fluorescence intensity (a.u.)
47 | AACTGATATGTAGGGTATGATTGTAATGAAATTACGATTGCGGAGTCACCTAGTGCAG | 4750 fluorescence intensity (a.u.)
48 | CTGTATTCATTAGGGTGGGACTGTATACTATAGTTATTATCGGAGTCACCTAGTGCAG | 3190 fluorescence intensity (a.u.)
49 | CTTCACCTTCCGAATCCTGAACTGACGTCTGCAAGACTGCCGGAGTCACCTAGTGCAG | 5270 fluorescence intensity (a.u.)
50 | AACGTCGCCGCTTGGTCTCCACGTCGAGTGGTCCTAGCCCCGGAGTCACCTAGTGCAG | 5250 fluorescence intensity (a.u.)
51 | CAAGATCCGACGGCTCCCAATGGCTCTGGTGACATGTCTCCGGAGTCACCTAGTGCAG | 3470 fluorescence intensity (a.u.)
52 | GATGGGACCACTCGTGACTCGTGCCACCCTCCGTGGCCCACGGAGTCACCTAGTGCAG | 3680 fluorescence intensity (a.u.)
53 | GATCACTGTACTGTACAGAGGCTAGCTCTAGCTAGGTAGCCGGAGTCACCTAGTGCAG | 26000 fluorescence intensity (a.u.)
54 | AATGGCTTTTATCAGATTCGCGGTGGACACGTGTCCATCACGGAGTCACCTAGTGCAG | 16700 fluorescence intensity (a.u.)
